# Drug screen on melanoma cell lines: apoptosis marker

Every entry is a combination with U73122 at 2 µM: COc1ccc2c(c1)CCC1C2CCC2(C)C(NCCCCCCN3C(=O)C=CC3=O)CCC12 (stereo not given)

Compounds and concentrations:
SU6656, 2 µM: CN(C)S(=O)(=O)c1ccc2c(c1)/C(=C/c1cc3c([nH]1)CCCC3)C(=O)N2
ABT-263, 2 µM: CC1(C)CCC(c2ccc(Cl)cc2)=C(CN2CCN(c3ccc(C(=O)NS(=O)(=O)c4ccc(N[C@H](CCN5CCOCC5)CSc5ccccc5)c(S(=O)(=O)C(F)(F)F)c4)cc3)CC2)C1
temozolomide, 10 µM: Cn1nnc2c(C(N)=O)ncn2c1=O
GSK0660, 5 µM: COC(=O)c1sccc1S(=O)(=O)Nc1ccc(Nc2ccccc2)cc1OC
PD173074, 0.5 µM: CCN(CC)CCCCNc1ncc2cc(-c3cc(OC)cc(OC)c3)c(NC(=O)NC(C)(C)C)nc2n1
vorinostat, 0.4 µM: O=C(CCCCCCC(=O)Nc1ccccc1)NO
AZD7762, 0.1 µM: NC(=O)Nc1cc(-c2cccc(F)c2)sc1C(=O)N[C@H]1CCCNC1
dovitinib, 0.5 µM: CN1CCN(c2ccc3nc(-c4c(N)c5c(F)cccc5[nH]c4=O)[nH]c3c2)CC1
bortezomib, 0.005 µM: CC(C)C[C@H](NC(=O)[C@H](Cc1ccccc1)NC(=O)c1cnccn1)B(O)O
nilotinib, 1 µM: Cc1cn(-c2cc(NC(=O)c3ccc(C)c(Nc4nccc(-c5cccnc5)n4)c3)cc(C(F)(F)F)c2)cn1
docetaxel, 0.0005 µM: CC(=O)O[C@@]12CO[C@@H]1C[C@H](O)[C@@]1(C)C(=O)[C@H](O)C3=C(C)[C@@H](OC(=O)[C@H](O)[C@@H](NC(=O)OC(C)(C)C)c4ccccc4)C[C@@](O)([C@@H](OC(=O)c4ccccc4)[C@H]21)C3(C)C
sorafenib, 2 µM: CNC(=O)c1cc(Oc2ccc(NC(=O)Nc3ccc(Cl)c(C(F)(F)F)c3)cc2)ccn1
vincristine, 0.0005 µM: CC[C@]1(O)C[C@H]2CN(CCc3c([nH]c4ccccc34)[C@@](C(=O)OC)(c3cc4c(cc3OC)N(C=O)[C@H]3[C@@](O)(C(=O)OC)[C@H](OC(C)=O)[C@]5(CC)C=CCN6CC[C@]43[C@@H]65)C2)C1
FH535, 5 µM: Cc1cc([N+](=O)[O-])ccc1NS(=O)(=O)c1cc(Cl)ccc1Cl
Src-I1, 10 µM: COc1cc2ncnc(Nc3ccc(Oc4ccccc4)cc3)c2cc1OC
NVP-TAE684, 0.4 µM: COc1cc(N2CCC(N3CCN(C)CC3)CC2)ccc1Nc1ncc(Cl)c(Nc2ccccc2S(=O)(=O)C(C)C)n1
bexarotene, 10 µM: C=C(c1ccc(C(=O)O)cc1)c1cc2c(cc1C)C(C)(C)CCC2(C)C
PF-562271, 0.4 µM: CN(c1ncccc1CNc1nc(Nc2ccc3c(c2)CC(=O)N3)ncc1C(F)(F)F)S(C)(=O)=O
tamatinib, 2 µM: COc1cc(Nc2ncc(F)c(Nc3ccc4c(n3)NC(=O)C(C)(C)O4)n2)cc(OC)c1OC
MK-2206, 2 µM: NC1(c2ccc(-c3nc4ccn5c(=O)[nH]nc5c4cc3-c3ccccc3)cc2)CCC1

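The test systems are human melanoma cell lines, treated with two drugs together for 72 h and then stained and imaged. The read-out is the fraction of cleaved-PARP-positive nuclei, in % of that fraction in the DMSO control; 200 means twice the control level of this apoptosis marker. Concentrations were fixed for each drug; these are the higher of two levels. These are primary screening values without error estimates. The marker varies much from line to line, for technical or biological reasons.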 An unselected part of the screen is shown.

- PF-562271 : WM1716: 74.9; A2058: 192; WM115: 86.3; SK-MEL-28: 112
- FH535 : WM1716: 243; A2058: 102; WM115: 191; SK-MEL-28: 95.6
- PD173074 : WM1716: 84.0; A2058: 238; WM115: 125; SK-MEL-28: 186
- nilotinib : WM1716: 250; A2058: 4450; WM115: 69.1; SK-MEL-28: 79.1
- temozolomide : WM1716: 638; A2058: 639; WM115: 137; SK-MEL-28: 521
- Src-I1 : WM1716: 133; A2058: 66.9; WM115: 134; SK-MEL-28: 125
- MK-2206 : WM1716: 61.4; A2058: 84.5; WM115: 163; SK-MEL-28: 135
- tamatinib : WM1716: 129; A2058: 169; WM115: 389; SK-MEL-28: 28.9
- bexarotene : WM1716: 178; A2058: 32.6; WM115: 97.7; SK-MEL-28: 121
- docetaxel : WM1716: 1620; A2058: 2600; WM115: 159; SK-MEL-28: 554
- AZD7762 : WM1716: 221; A2058: 64.2; WM115: 127; SK-MEL-28: 104
- dovitinib : WM1716: 134; A2058: 276; WM115: 27.2; SK-MEL-28: 203
- GSK0660 : WM1716: 105; A2058: 138; WM115: 124; SK-MEL-28: 147
- vincristine : WM1716: 101; A2058: 315; WM115: 143; SK-MEL-28: 51.0
- ABT-263 : WM1716: 1350; A2058: 163; WM115: 104; SK-MEL-28: 277
- sorafenib : WM1716: 95.9; A2058: 113; WM115: 84.1; SK-MEL-28: 199
- vorinostat : WM1716: 165; A2058: 616; WM115: 62.8; SK-MEL-28: 351
- SU6656 : WM1716: 21.3; A2058: 191; WM115: 495; SK-MEL-28: 64.3
- NVP-TAE684 : WM1716: 67.5; A2058: 423; WM115: 137; SK-MEL-28: 67.1
- bortezomib : WM1716: 9990; A2058: 1830; WM115: 554; SK-MEL-28: 107

For reference, 2 entries once more:

Partner,WM1716,A2058,WM115,SK-MEL-28
PF-562271,74.9,192,86.3,112
FH535,243,102,191,95.6

Values as published with doi:10.1371/journal.pone.0140310, rounded.